Each structure is given as a SMILES string. Whole data set: some 1,600 compounds, median “plate-normalized OD600 growth (mean of duplicates)” near 0.31, cut for the lowest 2% near 0.23. The list shows a part of the results.

This assay deals with Escherichia coli BW25113. Kind of assay: plate-normalized OD600 growth (mean of duplicates) (OD600 (normalized)); higher = more growth (less inhibition). Conditions: 10 µM. Here is the method:
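E. coli BW25113 in LB (100 µl, 96-well, no shaking) was exposed to 10 µM of each compound (here the ChemBridge subset of a ~30,000-member library) and grown at 37°C for 24 h or 15°C for 48 h, in duplicate. Growth was read as OD600 and the duplicate ODs were normalized across screening plates to correct plate-to-plate variation.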

Consider `O=C(Cc1ccc([N+](=O)[O-])cc1)NCCO`, for which the “plate-normalized OD600 growth” value reads like this: (temperature: 15°C, 48 h) 0.256; (temperature: 37°C, 24 h) 0.644.

Turning to `Cc1ccc(-c2ncccc2O)cc1[N+](=O)[O-]`, the “plate-normalized OD600 growth” value reads like this: (temperature: 15°C, 48 h) 0.245; (temperature: 37°C, 24 h) 0.615.

Regarding `CCCC(O)=C1C(=O)CC(C)(C)CC1=Nc1nc2ccccc2[nH]1`, the “plate-normalized OD600 growth” value stood at 0.272 (temperature: 15°C, 48 h) and 0.654 (temperature: 37°C, 24 h).

On to `O=c1[nH]nc(SCc2ccccc2)c(=O)[nH]1`, for which the “plate-normalized OD600 growth” value runs as follows: (temperature: 15°C, 48 h) 0.252; (temperature: 37°C, 24 h) 0.614.

For `Cc1ccc2nc(/C(C#N)=C\c3ccco3)[nH]c2c1`, the “plate-normalized OD600 growth” value (temperature: 15°C, 48 h) was found to be 0.242 and the “plate-normalized OD600 growth” value (temperature: 37°C, 24 h) is 0.599.

With `Cc1cc(C)cc(NCc2cc3c(cc2[N+](=O)[O-])OCO3)c1`, the “plate-normalized OD600 growth” value runs as follows: (temperature: 15°C, 48 h) 0.273; (temperature: 37°C, 24 h) 0.669.

Turning to `O=C(CC1Nc2ccccc2NC1=O)Nc1ccccc1` (stereo not given), the “plate-normalized OD600 growth” value reads like this: (temperature: 15°C, 48 h) 0.24; (temperature: 37°C, 24 h) 0.597.

Regarding `O=Cc1ccccc1OCc1ccccc1F`, the “plate-normalized OD600 growth” value runs as follows: (temperature: 15°C, 48 h) 0.256; (temperature: 37°C, 24 h) 0.61.

As to `Cc1sc2nc(SCC(=O)NC3CCCCC3)n(C)c(=O)c2c1C`, the “plate-normalized OD600 growth” value (temperature: 15°C, 48 h) is 0.271 and the “plate-normalized OD600 growth” value (temperature: 37°C, 24 h) was 0.647.

In the case of `COCc1cc(C)nc(NN)c1C#N`, the “plate-normalized OD600 growth” value amounted to 0.258 (temperature: 15°C, 48 h) and 0.622 (temperature: 37°C, 24 h).

Turning to `Fc1ccc(CN2CCN(c3ccccn3)CC2)c(F)c1`, the “plate-normalized OD600 growth” value reads like this: (temperature: 15°C, 48 h) 0.244; (temperature: 37°C, 24 h) 0.601.

For `CCC1CCCCN1C(=O)c1cccs1` (stereo not given), the “plate-normalized OD600 growth” value is, setting by setting: (temperature: 15°C, 48 h) 0.225; (temperature: 37°C, 24 h) 0.613.

Regarding `Cc1cc(C)n(S(=O)(=O)c2ccccc2)c(=O)n1`, the “plate-normalized OD600 growth” value by setting is: (temperature: 15°C, 48 h) 0.252; (temperature: 37°C, 24 h) 0.619.

With `O=C(Nc1nc(-c2ccccc2)cs1)c1ccccc1`, the “plate-normalized OD600 growth” value is, setting by setting: (temperature: 15°C, 48 h) 0.255; (temperature: 37°C, 24 h) 0.602.

`c1ccc(-c2ccn(-c3ccccc3)n2)cc1`: the “plate-normalized OD600 growth” value (temperature: 15°C, 48 h) was found to be 0.245 and the “plate-normalized OD600 growth” value (temperature: 37°C, 24 h) was determined as 0.604.

As to `COc1ccc(NC(=O)C2CCC(C)(C(=O)O)C2(C)C)cc1` (stereo not given), the “plate-normalized OD600 growth” value was 0.232 (temperature: 15°C, 48 h) and 0.614 (temperature: 37°C, 24 h).

In the case of `C=CCn1c(=O)n(CCC#N)c(=O)n(CCC#N)c1=O`, the “plate-normalized OD600 growth” value was determined as 0.253 (temperature: 15°C, 48 h) and 0.624 (temperature: 37°C, 24 h).

With `O=C1CCCc2c1nc(-c1cccc([N+](=O)[O-])c1)n2O`, the “plate-normalized OD600 growth” value (temperature: 15°C, 48 h) stood at 0.224 and the “plate-normalized OD600 growth” value (temperature: 37°C, 24 h) stood at 0.596.

In the case of `NS(=O)(=O)c1ccc2c(c1)C1C=CCC1C(C1CC=CCC1)N2` (stereo not given), the “plate-normalized OD600 growth” value is, setting by setting: (temperature: 15°C, 48 h) 0.25; (temperature: 37°C, 24 h) 0.611.

Turning to `Cc1c(C(=O)N2CCC(C(N)=O)CC2)sc(N)c1C#N`, the “plate-normalized OD600 growth” value by setting is: (temperature: 15°C, 48 h) 0.264; (temperature: 37°C, 24 h) 0.633.

`COc1ccc(-n2c(NN)nc3sc4c(c3c2=O)CCCC4)cc1`: the “plate-normalized OD600 growth” value runs as follows: (temperature: 15°C, 48 h) 0.261; (temperature: 37°C, 24 h) 0.636.

As for `Cc1nonc1NC(=O)Nc1ccncc1`, the “plate-normalized OD600 growth” value runs as follows: (temperature: 15°C, 48 h) 0.18; (temperature: 37°C, 24 h) 0.615.

Turning to `Cc1ccc(-c2csc(C(C#N)=Cc3ccc(Br)o3)n2)c(C)c1`, the “plate-normalized OD600 growth” value runs as follows: (temperature: 15°C, 48 h) 0.26; (temperature: 37°C, 24 h) 0.624.

As for `Cc1cc(OCC(=O)N(C)C2CCCCC2)ccc1Cl`, the “plate-normalized OD600 growth” value came to 0.246 (temperature: 15°C, 48 h) and 0.647 (temperature: 37°C, 24 h).

As for `C1CCCC(NCCN2CCCCC2)CC1`, the “plate-normalized OD600 growth” value stood at 0.264 (temperature: 15°C, 48 h) and 0.656 (temperature: 37°C, 24 h).

As to `O=C(O)C1CCCN1S(=O)(=O)c1ccc([N+](=O)[O-])cc1` (stereo not given), the “plate-normalized OD600 growth” value was 0.256 (temperature: 15°C, 48 h) and 0.626 (temperature: 37°C, 24 h).

As for `N#Cc1c(NC(=O)c2ccco2)sc2c1CCCCC2`, the “plate-normalized OD600 growth” value by setting is: (temperature: 15°C, 48 h) 0.265; (temperature: 37°C, 24 h) 0.653.

With `Cn1cnc([N+](=O)[O-])c1Sc1cn2c(n1)CCC2`, the “plate-normalized OD600 growth” value by setting is: (temperature: 15°C, 48 h) 0.237; (temperature: 37°C, 24 h) 0.615.

`N#CC(=Cc1cccs1)c1nc(-c2ccc3c(c2)OCO3)cs1`: the “plate-normalized OD600 growth” value runs as follows: (temperature: 15°C, 48 h) 0.241; (temperature: 37°C, 24 h) 0.61.

`O=C(O)CCCC(=O)Nc1ccc(Cl)c(Cl)c1`: the “plate-normalized OD600 growth” value is, setting by setting: (temperature: 15°C, 48 h) 0.247; (temperature: 37°C, 24 h) 0.602.

Consider `CC1CCC2(CC1)C(C#N)C(=O)NC(=O)C2C#N` (stereo not given), for which the “plate-normalized OD600 growth” value reads like this: (temperature: 15°C, 48 h) 0.244; (temperature: 37°C, 24 h) 0.615.

As for `COc1cc(CNc2ccccc2F)cc(OC)c1`, the “plate-normalized OD600 growth” value (temperature: 15°C, 48 h) stood at 0.257 and the “plate-normalized OD600 growth” value (temperature: 37°C, 24 h) was 0.626.

Turning to `CC1CCC(N2CCCN(C)CC2)CC1` (stereo not given), the “plate-normalized OD600 growth” value reads like this: (temperature: 15°C, 48 h) 0.282; (temperature: 37°C, 24 h) 0.645.

Consider `COc1nc(N)c(C#N)c(-c2ccc(N(C)C)cc2)c1C#N`, for which the “plate-normalized OD600 growth” value (temperature: 15°C, 48 h) is 0.248 and the “plate-normalized OD600 growth” value (temperature: 37°C, 24 h) is 0.633.

`CC1=C(C)CC2C(=O)N(Cc3ccccc3)C(=O)C2C1` (stereo not given): the “plate-normalized OD600 growth” value reads like this: (temperature: 15°C, 48 h) 0.24; (temperature: 37°C, 24 h) 0.654.
